Data: PubChem BioAssay AID2551 (National Center for Advancing Translational Sciences (NCATS), 2010)
The whole screen tested about 310,000 compounds, of which about 17,000 (5.5%) were called active. This list was built around the results that the source calls inconclusive (neither active nor inactive); the mix of calls is not that of the screen. Calls follow the shape of the dose curve; as a rule, active = well fitted inhibition curve with a large enough effect; inconclusive = small, poorly fitted or top-dose-only effect, or effect the other way; inactive = no such curve, though single readings can be large or run the other way. Where the call is inconclusive, the potency comes from a doubtful curve fit.

By UniProt entry, the sequences of proteins in these tests, tags left out. Where a name states a change or a piece, a line headed by the entry shows the natural chain unless it says otherwise.
UniProt P51450: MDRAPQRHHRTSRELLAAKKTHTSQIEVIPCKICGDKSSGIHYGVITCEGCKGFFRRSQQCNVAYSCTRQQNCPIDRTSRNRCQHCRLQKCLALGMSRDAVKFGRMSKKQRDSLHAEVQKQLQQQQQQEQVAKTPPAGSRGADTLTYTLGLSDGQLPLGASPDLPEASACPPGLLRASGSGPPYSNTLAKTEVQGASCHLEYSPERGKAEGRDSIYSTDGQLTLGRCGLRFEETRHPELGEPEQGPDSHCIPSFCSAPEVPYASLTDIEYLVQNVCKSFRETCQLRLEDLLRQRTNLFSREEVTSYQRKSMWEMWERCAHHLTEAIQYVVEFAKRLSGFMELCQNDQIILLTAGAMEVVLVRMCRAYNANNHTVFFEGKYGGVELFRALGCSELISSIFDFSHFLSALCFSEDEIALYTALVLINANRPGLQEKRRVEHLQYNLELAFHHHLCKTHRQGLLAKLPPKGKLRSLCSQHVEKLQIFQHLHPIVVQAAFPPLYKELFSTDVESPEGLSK

These compounds were tested against Nuclear receptor ROR-gamma (Mus musculus) (UniProt P51450) (assay: qHTS for inhibitors of ROR gamma transcriptional activity). Details: Drosophila S2 Gal4-RORgamma UAS-luciferase reporter, 20 h; series mostly up to 53.6 µM.
Procedure, shortened: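 Using a luciferase readout, inhibitors were identified by reduced reporter activity in Drosophila cells coexpressing a copper-inducible Gal4–ROR gamma fusion and UAS-driven Photinus luciferase, incubated 20 hr after 700 uM copper sulfate.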
Also: nearly all actives have a fitted effect of over 60% in size.
Potency is read from the fitted curve at half-maximal effect.

SMILES	Potency
O=C(Nc1ccon1)c1csc2c1CCCC2	inactive
CC(=O)Nc1ccc(OS(=O)(=O)c2ccc(Cl)cc2)cc1	inactive
COc1ccc2nc(N/C(N)=N/C(=S)Nc3ccc(C)c(C)c3)nc(C)c2c1	active: 0.794 µM
CN(C)CCOC(=O)CC12CC3CC(C1)CC(CC(=O)OCCN(C)C)(C3)C2	inconclusive: 7.08 µM [activator, full curve, poor fit]
O=C1/C(=C/c2cccnc2)SC(=S)N1c1ccc(F)cc1	active: 11.2 µM
Cc1cc(=O)oc2ccc(OCC(=O)N3CCC(C)CC3)cc12	inactive
Cc1ccc(NC(=O)c2ccc(N3CCOCC3)c([N+](=O)[O-])c2)cc1S(=O)(=O)N1CCOCC1	inconclusive: 14.1 µM [activator, partial curve]
COc1ccc(OC)c(-c2c3cc(O)c(=O)cc-3oc3cc(O)c(O)cc23)c1	inconclusive: 20 µM [inhibitor, partial curve, poor fit]
O=S(=O)(NCCc1csc(-c2cccnc2)n1)c1cccs1	inactive
COc1ccc2[nH]cc(CCNC(=O)Cc3c(F)cccc3Cl)c2c1	inconclusive: 31.6 µM [activator, single point]
O=S(=O)(c1ccc(Cl)c(NC(=S)N/N=C/c2c(F)cccc2F)c1)N1CCOCC1	active: 2 µM
C=C1C(=O)[C@@]23[C@H](O)C[C@@H]4C(C)(C)CC[C@H](O)[C@@]4(C)[C@@H]2CC[C@@H]1[C@H]3O	active: 2.82 µM
COc1ccc2nc(N3CCC(C)CC3)c(C#N)cc2c1	inconclusive: 12.6 µM [inhibitor, single point]
O=C(Nc1ncccn1)c1ccc(Cl)c([N+](=O)[O-])c1	inconclusive: 0.316 µM [inhibitor, partial curve]
O=C(Oc1ccc(Br)cc1)c1cncc(Br)c1	inactive
CCOC(=O)N1CCN(C(=O)c2cccc(-n3c(=S)[nH]c4cc(Cl)ccc4c3=O)c2)CC1	active: 11.2 µM
Cc1cc(C)n(C(=O)CNc2ccc(C)c(C)c2)n1	inconclusive: 17.8 µM [activator, single point]
COc1ccc(Cc2nc3ccccc3n2CC(=O)N/N=C/c2ccccc2)cc1OC	inactive
CCOc1cc(N2CCOCC2)c(OCC)cc1NC(=O)COC(=O)c1ccccc1C	inactive
CC(=O)OCC(=O)[C@@]12OC3(CCCC3)O[C@@H]1C[C@H]1[C@@H]3CCC4=CC(=O)C=C[C@]4(C)[C@@]3(F)[C@@H](O)C[C@@]12C	active: 8.91 µM
CC(=C/c1ccccc1)/C=N/n1c(-c2ccncc2)n[nH]c1=S	inconclusive: 2.24 µM [inhibitor, full curve]
COc1ccc(Br)cc1CNc1ccc(O)cc1	active: 8.91 µM
COc1ccc(CNC(=O)C2CCC(=O)N(CCCN3CCCC3=O)C2)cc1 (stereo not drawn)	inconclusive: 22.4 µM [inhibitor, partial curve, poor fit]
O=C(CCCN1C(=O)/C(=C/c2ccccc2)SC1=S)NCCCn1ccnc1	active: 5.01 µM
O=C1/C(=N\S(=O)(=O)c2cccs2)C([n+]2cccc(Cc3ccccc3)c2)=C([O-])c2ccccc21	inconclusive: 20 µM [inhibitor, single point]

SMILES	Potency
CC(NC(=O)COc1cccc(Br)c1)C(=O)O (stereo not drawn)	inactive
Cc1nonc1OCCNc1ccc([N+](=O)[O-])cc1	inconclusive: 7.08 µM [activator, full curve, poor fit]
COc1ccc(/C=N/n2cc(-c3ccccc3)nc2N)cc1	inconclusive: 35.5 µM [inhibitor, single point]
COc1cccc(-c2csc(N3CCN(C(=S)Nc4ccc(Cl)cc4)CC3)n2)c1	inconclusive: 35.5 µM [inhibitor, single point]
Cn1c(=O)c(NCCc2ccccc2)c2c3c(cccc31)C(=O)c1ccccc1-2	inactive
CC(C)C(=O)Nc1nnc(-c2ccccc2)o1	inconclusive: 12.6 µM [inhibitor, single point]
Fc1ccccc1CSc1nnc(Cn2cnc3ccccc32)n1-c1ccccc1	inconclusive: 35.5 µM [activator, single point]
O=C(CSc1nnc(-c2ccccc2)n1Cc1ccco1)Nc1ccc(S(=O)(=O)N2CCCC2)cc1	inconclusive: 7.08 µM [activator, partial curve]
COc1ccc2c(C)cc(=S)[nH]c2c1	inconclusive: 15.8 µM [inhibitor, partial curve, poor fit]
COc1ccc(Cl)cc1S(=O)(=O)n1nnc2ccccc21	inactive
CC(C)C(=O)Nc1cccc(NC(=S)NC(=O)C(c2ccccc2)c2ccccc2)c1	active: 7.08 µM
O=C(NCCc1ccccc1)c1ccccc1F	inconclusive: 12.6 µM [inhibitor, single point]
CC1(C)CC(=O)C2=C(C1)OC(N)=C(C#N)C2c1ccc2c(c1)OCO2 (stereo not drawn)	inconclusive: 14.1 µM [activator, partial curve, poor fit]
CCCc1cc(=O)[nH]c(SCC(=O)c2ccc(S(=O)(=O)N3CCCC3)cc2)n1	inconclusive: 17.8 µM [activator, single point]
COC(=O)c1cc2occc2n1Cc1nc(-c2cccc(Cl)c2)oc1C	inconclusive: 15.8 µM [activator, single point]
CCC1=NN(C(=O)CCc2ccccc2O)C(O)(C(F)(F)F)C1 (stereo not drawn)	active: 10 µM
Cc1ccsc1/C=C/c1ccc2cccc(O)c2n1	active: 4.47 µM
Cc1cc(C(=O)N/N=C/c2ccc([N+](=O)[O-])o2)c(C)o1	inactive
O=C(CSC1=NNC(c2ccccn2)S1)Nc1cccc(Cl)c1 (stereo not drawn)	active: 3.55 µM
O=C(NNC(=O)c1ccc(Cl)cc1Cl)c1csc(-c2cccnc2)n1	inactive
COC(=O)c1sc2cc(C(F)(F)F)cnc2c1-c1cccnc1	inactive
COc1cccc(CC(=O)Nc2nc(-c3ccc(OC)c(OC)c3)cs2)c1	inconclusive: 11.2 µM [activator, single point]
CCCCNCCCOc1cccc(Cl)c1Cl	inactive
COc1ccc(C(CCNCc2ccc(F)cc2)c2ccc(F)cc2)cc1 (stereo not drawn)	inconclusive: 28.2 µM [inhibitor, single point]
COc1ccccc1NC(=S)N(CCc1c(C)[nH]c2ccccc12)Cc1cccs1	inconclusive: 12.6 µM [inhibitor, partial curve, poor fit]

SMILES	Potency
O=C(NNc1ncc(C(F)(F)F)cc1Cl)c1ccc(Cl)c(Cl)c1	active: 11.2 µM
COc1ccc(-n2c(=O)c(-c3ccc(Cl)cc3)nc3cncnc32)cc1	inconclusive: 7.08 µM [inhibitor, partial curve]
Cc1cccc(Cn2ccc(-c3ccc(Cl)cc3)c(C#N)c2=O)c1	inconclusive: 0.708 µM [activator, full curve, poor fit]
O=C(O)CCCc1nc2ccccc2s1	inconclusive: 10 µM [inhibitor, partial curve]
CCNC(=O)COc1ccc(/C=C2\COc3ccccc3C2=O)cc1OC	inconclusive: 22.4 µM [inhibitor, single point]
S=C(NCc1ccccc1)NCc1ccco1	active: 11.2 µM
CN=C(c1ccc(C)cc1)n1c(=S)nc(-c2ccc(C)cc2)n(C)c1=S	inconclusive: 12.6 µM [inhibitor, single point]
COc1ccc(N/N=C(/C#N)S(=O)(=O)c2nsc(C)c2C#N)cc1	inconclusive: 35.5 µM [inhibitor, single point]
Cn1c(=O)[nH]c(=O)c2c1nc(N1CCC(Cc3ccccc3)CC1)n2Cc1ccccc1	inconclusive: 35.5 µM [inhibitor, single point]
Cc1nnc(NC(=O)C2CCCCC2)s1	inactive
O=C(Nc1nccs1)c1ccc2c(=O)n3c(nc2c1)CCCCC3	inconclusive: 0.0891 µM [activator, full curve, poor fit]
COc1cccc(OCc2cc(C(=O)N3CCN(C4CCCCC4)C(=O)C3)no2)c1	inconclusive: 22.4 µM [activator, single point]
CS(=O)(=O)c1ncc(Cl)c(C(=O)Nc2ccc(OC(F)F)cc2)n1	active: 3.55 µM
CCc1nc2ccccc2n1Cc1ccccc1OC	active: 7.08 µM
CCCCn1nnnc1NCc1ccc(C)s1	inconclusive: 0.0708 µM [inhibitor, full curve, poor fit]
COc1ccc(-c2noc(-c3ccccc3C(=O)Nc3cccnc3)n2)cc1	inconclusive: 35.5 µM [activator, single point]
Cc1cc(C)nc(NC(=O)/C=C/c2ccccc2Cl)c1	inconclusive: 6.31 µM [inhibitor, partial curve]
CN(C)CCN1C(=O)C2C(C(=O)Nc3cc(Cl)cc(Cl)c3)C3C=CC2(O3)C1C(=O)NC1CCCCC1 (stereo not drawn)	inactive
CN(C)/C=N/c1ncc(C(=O)c2ccccc2)s1	inconclusive: 0.501 µM [activator, full curve, poor fit]
Cc1ccc(Nc2nc(-c3ccccc3)cs2)nc1	inconclusive: 35.5 µM [inhibitor, single point]
Cc1ccc(C(=O)NC2=NCCS2)cc1	inconclusive: 35.5 µM [inhibitor, single point]
COc1ccnc(Oc2ccc(F)cc2)c1C(=O)N/C=N/OCc1ccc(F)cc1	inconclusive: 17.8 µM [activator, partial curve]
CCOC(=O)c1c(CS(=O)(=O)c2ccccc2)n(C)c2cc(Br)c(O)cc12	inconclusive: 15.8 µM [activator, partial curve, poor fit]
